Data source: PubChem BioAssay AID743121 (NCATS, 2013)
Here is an unselected part of about 26,000 reagents. In the full data, 167 (0.63%) are marked active. 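Calls are per gene from RSA p-values that are not deposited; an individual active-marked siRNA can sensitise only weakly.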 The numbers tell different reagents against one gene apart. Further read-outs or replicates are left out here.

Purpose: 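Knock-downs that sensitise breast cancer cells to camptothecin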 (primary screen)
System: MDA-MB-231 cells, a human breast cancer line
Reagent: single siRNA against human genes, 20 nM siRNA (0.8 pmol per well)
Duration: 120 h (drug added 48 h after transfection, read 72 h later)
Treatment: camptothecin 20 nM (about EC30) for 72 h; vehicle 0.1% DMSO in parallel plates
Detection: 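CellTiter-Glo ATP signal, scaled to control siRNA as percent viability; sensitisation given as log2 of untreated divided by camptothecin-treated viability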
Direction: log2 vehicle/camptothecin viability: higher = stronger sensitisation to camptothecin
Call rule: 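Active genes have an RSA gene-level p-value below 0.001, computed from the ratios of their separate siRNAs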

PKDCC (GeneID 91461) #1 → log2 vehicle/camptothecin viability = -0.011; activity call = inactive
PKDCC (GeneID 91461) #2 → log2 vehicle/camptothecin viability = -0.241; activity call = inactive
PKDCC (GeneID 91461) #3 → log2 vehicle/camptothecin viability = 0.133; activity call = inactive
PKDCC (GeneID 91461) #4 → log2 vehicle/camptothecin viability = -0.268; activity call = inactive
ADORA3 (GeneID 140) #1 → log2 vehicle/camptothecin viability = -0.343; activity call = inactive
ADORA3 (GeneID 140) #2 → log2 vehicle/camptothecin viability = -0.13; activity call = inactive
ADORA3 (GeneID 140) #3 → log2 vehicle/camptothecin viability = 0.155; activity call = inactive
ADORA3 (GeneID 140) #4 → log2 vehicle/camptothecin viability = -0.175; activity call = inactive
ADORA3 (GeneID 140) #5 → log2 vehicle/camptothecin viability = 1.19; activity call = inactive
ADORA3 (GeneID 140) #6 → log2 vehicle/camptothecin viability = -0.848; activity call = inactive
ADORA3 (GeneID 140) #7 → log2 vehicle/camptothecin viability = -0.0756; activity call = inactive
ADORA3 (GeneID 140) #8 → log2 vehicle/camptothecin viability = -0.118; activity call = inactive

The list goes on, starting with the last 5 of the part before.
ADORA3 (GeneID 140) #4 → log2 vehicle/camptothecin viability = -0.175; activity call = inactive
ADORA3 (GeneID 140) #5 → log2 vehicle/camptothecin viability = 1.19; activity call = inactive
ADORA3 (GeneID 140) #6 → log2 vehicle/camptothecin viability = -0.848; activity call = inactive
ADORA3 (GeneID 140) #7 → log2 vehicle/camptothecin viability = -0.0756; activity call = inactive
ADORA3 (GeneID 140) #8 → log2 vehicle/camptothecin viability = -0.118; activity call = inactive
COL9A1 (GeneID 1297) #1 → log2 vehicle/camptothecin viability = -0.383; activity call = inactive
COL9A1 (GeneID 1297) #2 → log2 vehicle/camptothecin viability = -0.387; activity call = inactive
COL9A1 (GeneID 1297) #3 → log2 vehicle/camptothecin viability = 0.347; activity call = inactive
COL9A1 (GeneID 1297) #4 → log2 vehicle/camptothecin viability = -0.00901; activity call = inactive
ARL3 (GeneID 403) #1 → log2 vehicle/camptothecin viability = 0.0834; activity call = inactive
ARL3 (GeneID 403) #2 → log2 vehicle/camptothecin viability = -0.452; activity call = inactive
ARL3 (GeneID 403) #3 → log2 vehicle/camptothecin viability = 0.193; activity call = inactive
PRKAR1A (GeneID 5573) #1 → log2 vehicle/camptothecin viability = -0.244; activity call = inactive
PRKAR1A (GeneID 5573) #2 → log2 vehicle/camptothecin viability = -0.0443; activity call = inactive
PRKAR1A (GeneID 5573) #3 → log2 vehicle/camptothecin viability = -0.00437; activity call = inactive
PRKAR1A (GeneID 5573) #4 → log2 vehicle/camptothecin viability = -0.644; activity call = inactive
NRG2 (GeneID 9542) #1 → log2 vehicle/camptothecin viability = 0.0835; activity call = inactive
NRG2 (GeneID 9542) #2 → log2 vehicle/camptothecin viability = 1.13; activity call = inactive
NRG2 (GeneID 9542) #3 → log2 vehicle/camptothecin viability = -0.578; activity call = inactive
RNF186 (GeneID 54546) #1 → log2 vehicle/camptothecin viability = 0.28; activity call = inactive
RNF186 (GeneID 54546) #2 → log2 vehicle/camptothecin viability = 0.144; activity call = inactive
RNF186 (GeneID 54546) #3 → log2 vehicle/camptothecin viability = -0.122; activity call = inactive
RNF186 (GeneID 54546) #4 → log2 vehicle/camptothecin viability = -0.491; activity call = inactive
KHK (GeneID 3795) #1 → log2 vehicle/camptothecin viability = -0.0355; activity call = inactive
KHK (GeneID 3795) #2 → log2 vehicle/camptothecin viability = 0.104; activity call = inactive
KHK (GeneID 3795) #3 → log2 vehicle/camptothecin viability = -0.392; activity call = inactive
KHK (GeneID 3795) #4 → log2 vehicle/camptothecin viability = -0.118; activity call = inactive
PLXNB2 (GeneID 23654) #1 → log2 vehicle/camptothecin viability = -0.615; activity call = inactive
PLXNB2 (GeneID 23654) #2 → log2 vehicle/camptothecin viability = 0.0221; activity call = inactive
PLXNB2 (GeneID 23654) #3 → log2 vehicle/camptothecin viability = -0.187; activity call = inactive
PLXNB2 (GeneID 23654) #4 → log2 vehicle/camptothecin viability = -0.428; activity call = inactive
